The supplement of paper PMC10849652
This is one part of the list.

Amino acid sequences for entries named in this document (tags omitted). A change or cut given only in a name is not applied to a line headed by its entry.
UniProt Q8IZ07: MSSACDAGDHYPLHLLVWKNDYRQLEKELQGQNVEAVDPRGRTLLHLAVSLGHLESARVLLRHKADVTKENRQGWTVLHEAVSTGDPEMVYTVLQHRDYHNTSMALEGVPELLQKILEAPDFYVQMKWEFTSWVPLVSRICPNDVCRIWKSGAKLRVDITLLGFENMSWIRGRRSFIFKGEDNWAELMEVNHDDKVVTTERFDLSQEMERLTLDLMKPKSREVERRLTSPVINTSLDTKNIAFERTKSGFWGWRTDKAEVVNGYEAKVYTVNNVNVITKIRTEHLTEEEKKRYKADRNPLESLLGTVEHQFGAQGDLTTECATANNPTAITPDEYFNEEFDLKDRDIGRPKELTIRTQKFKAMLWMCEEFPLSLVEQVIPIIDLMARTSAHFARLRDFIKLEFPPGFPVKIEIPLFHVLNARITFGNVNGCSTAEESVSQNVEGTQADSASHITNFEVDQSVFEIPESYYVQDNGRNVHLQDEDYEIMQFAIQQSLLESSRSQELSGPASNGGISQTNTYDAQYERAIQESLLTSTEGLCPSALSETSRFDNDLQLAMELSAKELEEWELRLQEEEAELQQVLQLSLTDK
UniProt Q92688: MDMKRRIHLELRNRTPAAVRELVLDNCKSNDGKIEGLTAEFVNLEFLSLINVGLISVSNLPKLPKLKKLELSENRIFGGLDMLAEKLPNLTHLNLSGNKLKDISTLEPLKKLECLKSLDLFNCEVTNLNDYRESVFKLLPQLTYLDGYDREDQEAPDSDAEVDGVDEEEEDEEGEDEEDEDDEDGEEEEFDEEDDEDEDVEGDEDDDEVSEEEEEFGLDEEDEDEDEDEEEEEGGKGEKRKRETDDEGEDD
UniProt Q9Y673: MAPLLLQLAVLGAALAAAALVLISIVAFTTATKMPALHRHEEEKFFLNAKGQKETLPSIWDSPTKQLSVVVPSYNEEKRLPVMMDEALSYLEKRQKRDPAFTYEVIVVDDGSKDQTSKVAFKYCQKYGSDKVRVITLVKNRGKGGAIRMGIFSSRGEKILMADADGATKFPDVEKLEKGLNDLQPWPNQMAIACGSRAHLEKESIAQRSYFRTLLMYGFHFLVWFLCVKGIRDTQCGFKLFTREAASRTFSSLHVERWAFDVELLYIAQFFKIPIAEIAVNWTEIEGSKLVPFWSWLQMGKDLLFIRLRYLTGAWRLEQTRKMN
UniProt Q13367: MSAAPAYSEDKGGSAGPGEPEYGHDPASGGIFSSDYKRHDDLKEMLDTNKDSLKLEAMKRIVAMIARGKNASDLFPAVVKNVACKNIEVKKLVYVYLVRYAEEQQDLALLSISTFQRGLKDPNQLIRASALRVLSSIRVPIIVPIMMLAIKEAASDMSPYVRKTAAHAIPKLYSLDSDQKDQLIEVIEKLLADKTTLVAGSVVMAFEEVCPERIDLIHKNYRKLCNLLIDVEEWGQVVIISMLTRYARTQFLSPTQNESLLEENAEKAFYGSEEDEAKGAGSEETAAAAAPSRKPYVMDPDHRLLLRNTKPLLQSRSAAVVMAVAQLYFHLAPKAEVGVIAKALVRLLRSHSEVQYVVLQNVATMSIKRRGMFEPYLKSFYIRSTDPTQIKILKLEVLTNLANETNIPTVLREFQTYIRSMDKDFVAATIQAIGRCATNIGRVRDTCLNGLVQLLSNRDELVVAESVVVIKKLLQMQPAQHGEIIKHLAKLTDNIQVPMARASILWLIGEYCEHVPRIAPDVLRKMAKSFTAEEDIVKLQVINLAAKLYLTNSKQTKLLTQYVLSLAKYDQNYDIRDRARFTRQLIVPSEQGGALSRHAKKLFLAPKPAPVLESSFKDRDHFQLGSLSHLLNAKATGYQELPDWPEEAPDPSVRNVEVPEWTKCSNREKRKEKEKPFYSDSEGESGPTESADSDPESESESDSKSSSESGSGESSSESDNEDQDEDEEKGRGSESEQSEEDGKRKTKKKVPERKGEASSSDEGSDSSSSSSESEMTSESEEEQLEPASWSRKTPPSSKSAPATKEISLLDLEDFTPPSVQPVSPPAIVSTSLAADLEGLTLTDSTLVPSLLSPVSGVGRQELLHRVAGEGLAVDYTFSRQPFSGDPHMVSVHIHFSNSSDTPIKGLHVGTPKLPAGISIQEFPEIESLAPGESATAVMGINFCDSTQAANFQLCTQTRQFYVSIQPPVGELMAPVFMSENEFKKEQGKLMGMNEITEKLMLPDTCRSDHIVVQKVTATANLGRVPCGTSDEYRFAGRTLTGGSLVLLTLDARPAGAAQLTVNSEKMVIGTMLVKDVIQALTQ
UniProt Q01432: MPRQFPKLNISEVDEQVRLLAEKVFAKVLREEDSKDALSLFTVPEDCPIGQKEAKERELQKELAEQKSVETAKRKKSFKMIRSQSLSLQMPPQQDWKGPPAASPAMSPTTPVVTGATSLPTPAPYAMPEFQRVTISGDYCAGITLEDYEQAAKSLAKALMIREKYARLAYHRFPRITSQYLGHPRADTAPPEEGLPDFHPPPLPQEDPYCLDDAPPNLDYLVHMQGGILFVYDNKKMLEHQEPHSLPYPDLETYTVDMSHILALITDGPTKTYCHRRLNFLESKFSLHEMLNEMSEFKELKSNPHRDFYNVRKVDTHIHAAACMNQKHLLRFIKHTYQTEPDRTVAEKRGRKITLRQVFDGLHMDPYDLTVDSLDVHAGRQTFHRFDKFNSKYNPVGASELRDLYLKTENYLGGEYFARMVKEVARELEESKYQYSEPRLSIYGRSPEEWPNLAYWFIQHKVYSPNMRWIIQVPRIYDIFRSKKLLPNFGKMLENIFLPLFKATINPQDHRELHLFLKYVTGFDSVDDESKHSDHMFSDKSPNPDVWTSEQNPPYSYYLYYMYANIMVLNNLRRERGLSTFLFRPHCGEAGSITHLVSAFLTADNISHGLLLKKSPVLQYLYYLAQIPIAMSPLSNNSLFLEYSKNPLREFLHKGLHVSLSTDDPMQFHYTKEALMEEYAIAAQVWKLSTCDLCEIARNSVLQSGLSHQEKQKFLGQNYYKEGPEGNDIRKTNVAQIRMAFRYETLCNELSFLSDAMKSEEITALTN
UniProt Q9UJX6, whole entry, looked up: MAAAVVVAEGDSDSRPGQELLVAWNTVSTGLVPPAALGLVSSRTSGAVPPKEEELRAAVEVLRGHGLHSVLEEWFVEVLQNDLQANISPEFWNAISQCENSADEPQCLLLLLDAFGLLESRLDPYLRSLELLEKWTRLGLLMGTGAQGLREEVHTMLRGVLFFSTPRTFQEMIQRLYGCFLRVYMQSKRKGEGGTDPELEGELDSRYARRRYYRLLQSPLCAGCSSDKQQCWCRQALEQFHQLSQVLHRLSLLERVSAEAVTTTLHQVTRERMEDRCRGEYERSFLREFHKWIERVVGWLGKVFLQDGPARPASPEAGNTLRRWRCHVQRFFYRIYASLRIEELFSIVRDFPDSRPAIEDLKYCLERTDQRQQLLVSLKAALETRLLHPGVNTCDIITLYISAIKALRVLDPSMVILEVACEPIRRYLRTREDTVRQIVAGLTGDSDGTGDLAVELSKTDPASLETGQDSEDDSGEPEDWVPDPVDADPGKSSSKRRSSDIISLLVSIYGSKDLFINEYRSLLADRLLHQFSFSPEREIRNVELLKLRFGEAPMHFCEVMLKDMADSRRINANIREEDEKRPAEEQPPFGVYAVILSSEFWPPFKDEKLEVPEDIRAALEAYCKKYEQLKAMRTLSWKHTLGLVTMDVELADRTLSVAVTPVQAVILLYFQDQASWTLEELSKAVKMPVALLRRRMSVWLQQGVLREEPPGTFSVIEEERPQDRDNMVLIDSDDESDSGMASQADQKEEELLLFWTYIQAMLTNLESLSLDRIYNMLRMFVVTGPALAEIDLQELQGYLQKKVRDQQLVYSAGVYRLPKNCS
UniProt P56377: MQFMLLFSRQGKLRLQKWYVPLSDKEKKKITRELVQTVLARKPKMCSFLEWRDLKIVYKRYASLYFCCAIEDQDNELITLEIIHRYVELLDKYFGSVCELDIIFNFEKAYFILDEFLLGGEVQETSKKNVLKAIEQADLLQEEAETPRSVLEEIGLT
UniProt Q9UM13, whole entry, looked up: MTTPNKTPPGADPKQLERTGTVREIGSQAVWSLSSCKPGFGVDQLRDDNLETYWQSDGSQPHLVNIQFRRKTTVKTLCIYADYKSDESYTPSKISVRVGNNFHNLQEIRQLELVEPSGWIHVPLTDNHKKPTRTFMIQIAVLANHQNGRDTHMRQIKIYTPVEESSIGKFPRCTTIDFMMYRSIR
UniProt P17707: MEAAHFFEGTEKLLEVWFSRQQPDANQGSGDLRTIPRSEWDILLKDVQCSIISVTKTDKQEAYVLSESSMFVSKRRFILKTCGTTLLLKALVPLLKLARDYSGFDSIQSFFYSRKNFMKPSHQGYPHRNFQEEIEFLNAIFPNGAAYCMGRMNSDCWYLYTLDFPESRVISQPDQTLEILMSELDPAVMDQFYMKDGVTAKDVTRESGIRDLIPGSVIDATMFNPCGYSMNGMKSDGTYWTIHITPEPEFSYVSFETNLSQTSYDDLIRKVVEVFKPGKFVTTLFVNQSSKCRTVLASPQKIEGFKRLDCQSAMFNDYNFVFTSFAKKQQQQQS
UniProt P63010: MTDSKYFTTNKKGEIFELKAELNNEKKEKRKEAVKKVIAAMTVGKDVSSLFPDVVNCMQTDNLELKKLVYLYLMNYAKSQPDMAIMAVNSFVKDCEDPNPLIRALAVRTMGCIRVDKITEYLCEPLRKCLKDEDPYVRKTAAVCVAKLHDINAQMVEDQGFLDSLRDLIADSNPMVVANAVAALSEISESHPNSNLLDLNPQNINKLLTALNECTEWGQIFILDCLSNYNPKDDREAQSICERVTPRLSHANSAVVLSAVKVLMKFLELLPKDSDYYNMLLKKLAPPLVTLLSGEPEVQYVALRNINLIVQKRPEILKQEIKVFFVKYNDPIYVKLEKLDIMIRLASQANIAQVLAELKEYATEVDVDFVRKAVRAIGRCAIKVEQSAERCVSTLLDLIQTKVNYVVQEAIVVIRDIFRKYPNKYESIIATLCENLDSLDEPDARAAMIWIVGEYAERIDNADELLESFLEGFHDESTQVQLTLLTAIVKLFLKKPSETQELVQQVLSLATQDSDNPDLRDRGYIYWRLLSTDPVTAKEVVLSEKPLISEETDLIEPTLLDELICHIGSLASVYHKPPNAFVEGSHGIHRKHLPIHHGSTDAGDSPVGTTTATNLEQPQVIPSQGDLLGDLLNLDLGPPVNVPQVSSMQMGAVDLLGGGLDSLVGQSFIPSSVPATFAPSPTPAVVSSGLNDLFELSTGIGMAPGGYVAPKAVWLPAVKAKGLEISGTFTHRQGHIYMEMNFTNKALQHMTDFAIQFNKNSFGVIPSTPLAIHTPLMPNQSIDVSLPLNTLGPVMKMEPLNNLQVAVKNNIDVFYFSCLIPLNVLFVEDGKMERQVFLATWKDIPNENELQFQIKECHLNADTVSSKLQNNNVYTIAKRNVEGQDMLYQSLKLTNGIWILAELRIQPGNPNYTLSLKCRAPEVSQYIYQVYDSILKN
UniProt P08758: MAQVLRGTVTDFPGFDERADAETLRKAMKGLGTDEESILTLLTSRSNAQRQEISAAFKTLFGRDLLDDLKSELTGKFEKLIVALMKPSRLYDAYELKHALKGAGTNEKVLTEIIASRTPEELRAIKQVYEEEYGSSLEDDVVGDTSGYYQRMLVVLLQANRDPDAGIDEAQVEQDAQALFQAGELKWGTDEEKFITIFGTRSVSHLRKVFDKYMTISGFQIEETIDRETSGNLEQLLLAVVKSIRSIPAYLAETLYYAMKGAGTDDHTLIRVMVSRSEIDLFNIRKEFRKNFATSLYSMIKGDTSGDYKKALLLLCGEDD
UniProt P09525: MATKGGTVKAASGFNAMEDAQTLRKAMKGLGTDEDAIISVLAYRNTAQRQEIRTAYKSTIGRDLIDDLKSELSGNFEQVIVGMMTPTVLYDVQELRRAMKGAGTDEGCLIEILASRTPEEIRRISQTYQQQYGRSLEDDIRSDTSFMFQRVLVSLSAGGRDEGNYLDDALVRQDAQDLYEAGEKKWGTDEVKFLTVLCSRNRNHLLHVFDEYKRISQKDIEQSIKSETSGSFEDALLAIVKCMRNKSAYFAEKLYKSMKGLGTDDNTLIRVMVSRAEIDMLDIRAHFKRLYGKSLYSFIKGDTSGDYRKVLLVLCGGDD
UniProt Q9Y672: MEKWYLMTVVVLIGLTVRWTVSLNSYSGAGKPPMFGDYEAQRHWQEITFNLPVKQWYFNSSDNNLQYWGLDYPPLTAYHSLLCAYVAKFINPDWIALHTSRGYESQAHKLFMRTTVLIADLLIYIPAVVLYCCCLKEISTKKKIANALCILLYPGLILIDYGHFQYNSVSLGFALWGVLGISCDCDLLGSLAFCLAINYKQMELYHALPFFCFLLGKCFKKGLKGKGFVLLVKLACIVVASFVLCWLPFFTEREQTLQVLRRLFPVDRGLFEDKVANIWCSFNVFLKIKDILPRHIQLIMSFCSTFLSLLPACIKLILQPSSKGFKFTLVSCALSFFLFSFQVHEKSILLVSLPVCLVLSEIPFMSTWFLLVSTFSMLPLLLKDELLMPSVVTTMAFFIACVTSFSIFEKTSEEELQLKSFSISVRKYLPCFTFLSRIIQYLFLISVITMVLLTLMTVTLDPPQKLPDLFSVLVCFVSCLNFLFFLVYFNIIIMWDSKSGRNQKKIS

Experiments:
Test in all cases: log2 fold change, soluble protein after heating vs DMSO (PISA); higher = thermal stabilisation; K562 lysate, 10 uM; active = over 0.2 and 3.5 SD of the protein, either way, in both replicates (recomputed)
[1] = compound: C=CC(=O)N1CCC[C@@H](n2nc(-c3ccc(Oc4ccccc4)cc3)c3c(N)ncnc32)C1 [ibrutinib]
Outline: (§1)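 Log-two fold change in thermal stability relative to solvent controls is reported from duplicates. For each sample, crude K562 extract from dounce-homogenised pellets in PBS pH 7.4 with 1 mM MgCl2, at 1 mg/mL protein, was treated with 10 μM compound for 30 min. Aliquots heated for 3 min across 48°C-58°C were pooled, brought to 0.5% NP-40 at 4°C and cleared at 21,000xg for 90 min. The supernatant was quantified by TMTpro 16plex LC-MS/MS with channel sums equalised.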

[2] = compound: CC(=O)c1cnc2ccc(-c3cc(Cl)c(O)c(Cl)c3)nc2c1N[C@H]1CC[C@H](CN(C)C)CC1
Outline: as §1

[3] = compound: CC(C)(C)Cn1c(N)nc2ccc(-c3[nH]c(C(C)(C)C)nc3-c3ccc(F)cc3)nc21 [ralimetinib]
Outline: as §1

[4] = compound: CC(C)(O)CC(=O)NCCn1ccc2ncnc(Nc3ccc(Oc4cccc(C(F)(F)F)c4)c(Cl)c3)c21
Outline: as §1

[5] = compound: CC(C)C1=C2N=C(C=C(N2N=C1)NCC3=CC=CC=C3)NCCCCCCN
Outline: as §1

[6] = compound: CC1=C(C(CC(=O)N1)C2=CC=C(C=C2)C(F)(F)F)C(=O)NC3=C(C=C4C(=C3)C=NN4)F
Outline: as §1

[7] = compound: CC1=C(C2=C(C=C1)C(=O)C3=CC=CC=C3N2CCCN)C
Outline: as §1

[8] = compound: CC1=C(C=C(C=C1)NC(=O)C2=CC(=CC=C2)C(C)(C)C#N)NC3=CC4=C(C=C3)N=CN(C4=O)C
Outline: as §1

[9] = compound: CC1=C(C=C(C=C1)NC(=O)C2=CC(=CC=C2)N(C)C)NC(=O)C3=CC=C(C=C3)O
Outline: as §1

[10] = compound: CC1=CC=C(C=C1)SC2=C3C=C(SC3=CN=C2)C(=O)N
Outline: as §1

[11] = compound: CCCS(=O)(=O)Nc1ccc(F)c(C(=O)c2c[nH]c3ncc(-c4ccc(Cl)cc4)cc23)c1F [vemurafenib]
Outline: as §1

[12] = compound: CCCS(=O)(=O)Nc1ccc(F)c(C(=O)c2c[nH]c3ncc(Cl)cc23)c1F
Outline: as §1

[13] = compound: CCN(CCCOc1ccc2c(Nc3cc(CC(=O)Nc4cccc(F)c4)[nH]n3)ncnc2c1)CCOP(=O)(O)O [barasertib]
Outline: as §1

[14] = compound: CC[C@@H]1C(=O)N(C)c2cnc(Nc3ccc(C(=O)NC4CCN(C)CC4)cc3OC)nc2N1C1CCCC1
Outline: as §1

[15] = compound: CC[C@@H]1C(=O)N(C)c2cnc(Nc3ccc(C(=O)N[C@H]4CC[C@H](N5CCN(CC6CC6)CC5)CC4)cc3OC)nc2N1C(C)C [volasertib]
Outline: as §1

[16] = compound: CCn1c(C(=O)N(C2CC2)C2CC2)cc2c3c(ncn3C)c(Nc3cc(C)n(C)n3)nc21
Outline: as §1

[17] = compound: CCn1cc(-c2ccnc3[nH]c(-c4cccc(CN(C)C)c4)cc23)c(-c2ccc(NC(=O)N(C)C)cc2)n1
Outline: as §1

[18] = compound: CN1CCC(CNc2ccc3ncc(-c4cccc(OC(F)(F)F)c4)n3n2)CC1
Outline: as §1

[19] = compound: CN1CCN(CCOc2cc(OC3CCOCC3)c3c(Nc4c(Cl)ccc5c4OCO5)ncnc3c2)CC1 [saracatinib]
Outline: as §1

[20] = compound: CN1CCN(c2nc(C3=C(c4c[nH]c5ccccc45)C(=O)NC3=O)c3ccccc3n2)CC1 [sotrastaurin]
Outline: as §1

Measured: log2 fold change

ANKRD13A (UniProt Q8IZ07)
inactive: [1] -0.038 | [2] 0.018 | [3] 0.02 | [4] -0.016 | [5] -0.007 | [6] 0.05 | [7] -0.015 | [8] -0.005 | [9] 0.007 | [10] 0 | [11] -0.009 | [12] 0.062 | [13] 0 | [14] -0.002 | [15] -0.003 | [16] -0.023 | [17] -0.053 | [18] -0.003 | [19] 0.034 | [20] 0.034

ANP32B (UniProt Q92688)
inactive: [1] 0.002 | [2] 0 | [3] 0.028 | [4] 0.013 | [5] -0.004 | [6] -0.006 | [7] -0.008 | [8] 0.005 | [9] -0.022 | [10] -0.023 | [11] 0.003 | [12] 0.043 | [13] -0.04 | [14] 0.005 | [15] 0.037 | [16] -0.009 | [17] -0.013 | [18] 0.046 | [19] -0.009 | [20] -0.004

ALG5 (UniProt Q9Y673)
inactive: [1] 0.02 | [2] 0.01 | [3] -0.04 | [4] 0.048 | [5] -0.001 | [6] -0.001 | [7] 0.042 | [8] 0.025 | [9] 0.023 | [10] 0.014 | [11] 0.028 | [12] 0.011 | [13] -0.059 | [14] -0.019 | [15] -0.021 | [16] 0.037 | [17] -0.054 | [18] -0.008 | [19] 0.079 | [20] 0.004

AP3B2 isoform 4 (UniProt Q13367)
inactive: [1] 0.015 | [2] -0.036 | [3] 0.005 | [4] 0.022 | [5] -0.006 | [6] 0.008 | [7] 0.003 | [8] -0.009 | [9] 0.022 | [10] 0.002 | [11] -0.019 | [12] 0.017 | [13] -0.045 | [14] 0.008 | [15] -0.026 | [16] 0.014 | [17] -0.078 | [18] -0.006 | [19] 0.004 | [20] -0.011

AMPD3 isoform 4 (UniProt Q01432)
inactive: [1] 0.05 | [2] 0.001 | [3] 0.037 | [4] -0.041 | [5] -0.019 | [6] -0.029 | [7] 0.011 | [8] 0.006 | [9] -0.004 | [10] -0.005 | [11] -0.021 | [12] 0.005 | [13] 0.017 | [14] -0.033 | [15] -0.026 | [16] -0.029 | [17] 0.1 | [18] -0.046 | [19] 0.043 | [20] 0.024

ANAPC2 (UniProt Q9UJX6)
inactive: [1] 0.043 | [2] 0.008 | [3] 0.022 | [4] -0.003 | [5] -0.008 | [6] -0.011 | [7] -0.025 | [8] 0.004 | [9] -0.01 | [10] 0.002 | [11] 0.05 | [12] 0.026 | [13] -0.007 | [14] 0.016 | [15] -0.047 | [16] 0.002 | [17] -0.078 | [18] 0.058 | [19] 0.017 | [20] 0.002

Retrieved one by one from above, 2 records:
ALG5 (UniProt Q9Y673)
inactive: [1] 0.02 | [2] 0.01 | [3] -0.04 | [4] 0.048 | [5] -0.001 | [6] -0.001 | [7] 0.042 | [8] 0.025 | [9] 0.023 | [10] 0.014 | [11] 0.028 | [12] 0.011 | [13] -0.059 | [14] -0.019 | [15] -0.021 | [16] 0.037 | [17] -0.054 | [18] -0.008 | [19] 0.079 | [20] 0.004

AP3B2 isoform 4 (UniProt Q13367)
inactive: [1] 0.015 | [2] -0.036 | [3] 0.005 | [4] 0.022 | [5] -0.006 | [6] 0.008 | [7] 0.003 | [8] -0.009 | [9] 0.022 | [10] 0.002 | [11] -0.019 | [12] 0.017 | [13] -0.045 | [14] 0.008 | [15] -0.026 | [16] 0.014 | [17] -0.078 | [18] -0.006 | [19] 0.004 | [20] -0.011

(cont.)

AP1S2 isoform 2 (UniProt P56377)
inactive: [1] -0.052 | [2] -0.005 | [3] 0.058 | [4] 0.07 | [5] -0.041 | [6] -0.034 | [7] 0 | [8] 0.043 | [9] -0.008 | [10] -0.017 | [11] -0.083 | [12] 0.006 | [13] 0.014 | [14] -0.13 | [15] 0.008 | [16] 0.035 | [17] -0.321 | [18] 0.184 | [19] 0.055 | [20] 0.056

ANKRD49 (UniProt Q8WVL7)
inactive: [1] 0.022 | [2] -0.026 | [3] 0.03 | [4] -0.024 | [5] 0.012 | [6] -0.025 | [7] -0.032 | [8] 0.034 | [9] 0.018 | [10] 0.01 | [11] -0.022 | [12] -0.014 | [13] -0.037 | [14] -0.093 | [15] 0.011 | [16] 0.026 | [17] 0.028 | [18] -0.003 | [19] 0.01 | [20] -0.059

ANAPC10 (UniProt Q9UM13)
inactive: [1] -0.015 | [2] -0.017 | [3] 0.035 | [4] 0.024 | [5] 0.182 | [6] -0.007 | [7] -0.001 | [8] 0.041 | [9] 0.001 | [10] -0.025 | [11] 0.022 | [12] 0.011 | [13] -0.012 | [14] 0.068 | [15] -0.012 | [16] -0.027 | [17] 0 | [18] 0.034 | [19] 0.046 | [20] 0.009

ANXA6 (UniProt P08133)
inactive: [1] 0.005 | [2] -0.001 | [3] -0.015 | [4] -0.033 | [5] 0.004 | [6] -0.015 | [7] 0.001 | [8] -0.013 | [9] 0.025 | [10] -0.008 | [11] -0.003 | [12] 0.016 | [13] 0.022 | [14] -0.128 | [15] -0.024 | [16] -0.017 | [17] -0.14 | [18] 0.114 | [19] -0.009 | [20] 0.013

AMD1 (UniProt P17707)
active: [2] 0.464
inactive: [1] -0.031 | [3] -0.02 | [4] -0.013 | [5] -0.054 | [6] 0.019 | [7] -0.015 | [8] 0.155 | [9] -0.023 | [10] -0.119 | [11] 0.096 | [12] -0.01 | [13] 0.064 | [14] 0.036 | [15] -0.014 | [16] 0.117 | [17] -0.129 | [18] 0.127 | [19] 0.013 | [20] -0.002

ANK1 isoform 14 (UniProt P16157)
inactive: [1] 0.017 | [2] -0.001 | [3] 0.049 | [4] 0.017 | [5] 0.002 | [6] -0.011 | [7] -0.035 | [8] -0.034 | [9] 0.055 | [10] 0.011 | [11] 0.03 | [12] 0.011 | [13] 0.056 | [14] -0.04 | [15] -0.083 | [16] 0.038 | [17] -0.013 | [18] -0.062 | [19] 0.002 | [20] 0.013

AP2B1 isoform 2 (UniProt P63010)
inactive: [1] 0.003 | [2] 0.005 | [3] 0.003 | [4] -0.002 | [5] -0.018 | [6] -0.022 | [7] -0.001 | [8] 0.042 | [9] -0.02 | [10] -0.008 | [11] 0.017 | [12] 0.024 | [13] -0.011 | [14] 0.023 | [15] -0.009 | [16] 0.005 | [17] -0.036 | [18] 0.028 | [19] -0.023 | [20] -0.014

ANXA5 (UniProt P08758)
inactive: [1] -0.009 | [2] -0.005 | [3] 0.014 | [4] 0.038 | [5] -0.026 | [6] 0.007 | [7] 0.032 | [8] -0.024 | [9] 0 | [10] 0.005 | [11] -0.034 | [12] -0.011 | [13] 0.003 | [14] -0.073 | [15] -0.001 | [16] 0.059 | [17] 0.022 | [18] -0.064 | [19] -0.008 | [20] 0.024

ANXA4 (UniProt P09525)
inactive: [1] -0.006 | [2] -0.024 | [3] -0.006 | [4] 0.012 | [5] -0.027 | [6] -0.019 | [7] 0.044 | [8] -0.025 | [9] 0.017 | [10] -0.007 | [11] -0.025 | [12] 0 | [13] 0.011 | [14] -0.05 | [15] -0.02 | [16] 0.004 | [17] -0.048 | [18] -0.005 | [19] 0.021 | [20] 0.025

ALG6 (UniProt Q9Y672)
inactive: [1] -0.023 | [2] 0.019 | [3] 0.105 | [4] -0.302 | [5] 0.031 | [6] 0.019 | [7] 0 | [8] 0.122 | [9] -0.038 | [10] 0 | [11] 0.052 | [12] 0.006 | [13] 0.058 | [14] 0.038 | [15] 0.088 | [16] -0.185 | [17] -0.119 | [18] 0.035 | [19] 0.085 | [20] 0.017
